Data published in paper PMC10603050.
No constants are given. Whether binding was seen depends on the method and setting. In cells and extracts the contact can be indirect. Some entries that bind do so weakly or less than the wild type.

The chains behind the UniProt entries cited, without tags or fusion partners.
UniProt Q14160: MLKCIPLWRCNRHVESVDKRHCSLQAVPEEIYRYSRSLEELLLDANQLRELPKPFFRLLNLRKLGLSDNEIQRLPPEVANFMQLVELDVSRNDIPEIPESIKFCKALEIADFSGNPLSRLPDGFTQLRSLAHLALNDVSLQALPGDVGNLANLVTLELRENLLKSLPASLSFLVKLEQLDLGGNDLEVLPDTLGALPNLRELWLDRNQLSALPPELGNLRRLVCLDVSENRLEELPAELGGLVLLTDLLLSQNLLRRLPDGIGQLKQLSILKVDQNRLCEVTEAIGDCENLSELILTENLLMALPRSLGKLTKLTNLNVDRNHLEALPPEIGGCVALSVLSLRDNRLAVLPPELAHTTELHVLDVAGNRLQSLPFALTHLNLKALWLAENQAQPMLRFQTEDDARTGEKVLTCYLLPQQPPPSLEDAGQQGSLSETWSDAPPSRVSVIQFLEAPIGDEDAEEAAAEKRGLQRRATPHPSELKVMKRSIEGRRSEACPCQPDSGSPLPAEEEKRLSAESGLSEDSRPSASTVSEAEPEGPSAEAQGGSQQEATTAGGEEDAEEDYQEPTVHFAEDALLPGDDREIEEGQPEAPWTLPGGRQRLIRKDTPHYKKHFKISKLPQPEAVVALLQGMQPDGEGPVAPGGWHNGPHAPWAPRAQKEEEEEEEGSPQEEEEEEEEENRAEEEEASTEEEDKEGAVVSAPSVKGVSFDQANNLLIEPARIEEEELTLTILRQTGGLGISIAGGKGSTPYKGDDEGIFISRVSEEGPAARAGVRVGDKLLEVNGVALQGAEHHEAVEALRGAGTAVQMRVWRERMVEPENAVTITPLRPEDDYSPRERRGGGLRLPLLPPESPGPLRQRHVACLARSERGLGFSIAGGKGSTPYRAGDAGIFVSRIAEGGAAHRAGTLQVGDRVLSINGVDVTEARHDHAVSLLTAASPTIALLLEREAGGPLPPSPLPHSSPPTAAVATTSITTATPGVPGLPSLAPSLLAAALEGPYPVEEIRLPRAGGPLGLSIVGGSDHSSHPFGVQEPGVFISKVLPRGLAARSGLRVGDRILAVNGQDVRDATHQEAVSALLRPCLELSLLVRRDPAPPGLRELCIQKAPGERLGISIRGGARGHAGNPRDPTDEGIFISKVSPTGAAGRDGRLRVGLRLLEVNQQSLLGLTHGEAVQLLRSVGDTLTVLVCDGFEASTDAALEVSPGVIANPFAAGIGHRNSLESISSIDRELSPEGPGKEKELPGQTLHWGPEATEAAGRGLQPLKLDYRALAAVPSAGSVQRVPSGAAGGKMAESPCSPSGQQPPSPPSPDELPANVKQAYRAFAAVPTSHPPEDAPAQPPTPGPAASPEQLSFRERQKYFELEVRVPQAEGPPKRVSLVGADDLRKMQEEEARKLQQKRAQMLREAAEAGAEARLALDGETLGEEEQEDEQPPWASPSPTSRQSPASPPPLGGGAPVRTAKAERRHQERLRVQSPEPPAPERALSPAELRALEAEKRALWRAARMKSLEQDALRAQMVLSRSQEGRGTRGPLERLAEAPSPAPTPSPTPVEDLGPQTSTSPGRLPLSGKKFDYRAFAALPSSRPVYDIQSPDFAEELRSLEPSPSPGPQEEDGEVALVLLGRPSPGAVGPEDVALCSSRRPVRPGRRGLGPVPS
UniProt Q676U5: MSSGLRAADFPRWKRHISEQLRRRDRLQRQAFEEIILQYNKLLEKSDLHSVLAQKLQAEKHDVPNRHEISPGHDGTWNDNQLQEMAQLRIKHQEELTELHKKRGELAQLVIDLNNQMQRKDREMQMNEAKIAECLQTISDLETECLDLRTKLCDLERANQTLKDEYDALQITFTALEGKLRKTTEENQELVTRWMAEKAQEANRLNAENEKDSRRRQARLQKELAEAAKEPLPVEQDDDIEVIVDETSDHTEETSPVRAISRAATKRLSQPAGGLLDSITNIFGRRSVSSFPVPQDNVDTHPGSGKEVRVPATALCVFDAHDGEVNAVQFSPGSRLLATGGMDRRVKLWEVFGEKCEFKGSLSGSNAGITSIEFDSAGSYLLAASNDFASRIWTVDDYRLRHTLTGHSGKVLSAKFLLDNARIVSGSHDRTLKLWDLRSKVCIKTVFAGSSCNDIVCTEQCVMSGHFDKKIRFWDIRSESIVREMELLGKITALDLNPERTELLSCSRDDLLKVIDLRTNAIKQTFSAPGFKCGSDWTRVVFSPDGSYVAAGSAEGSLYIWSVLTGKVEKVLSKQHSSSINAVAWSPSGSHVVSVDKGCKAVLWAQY

How the values were obtained:
Flag-tagged SCRIB = Flag-tagged SCRIB (UniProt Q14160); assay: co-IP; Flag-SCRIB or Flag-ATG16L1 expressed in 293 T cells; lysate (25 mM Tris-HCl pH 7.4, 150 mM NaCl, 1% NP-40, 1 mM EDTA, 5% glycerol) precipitated with anti-Flag-tag antibody; western blot with antibodies against the indicated proteins
Flag-tagged ATG16L1 = Flag-tagged ATG16L1 (UniProt Q676U5); assay: as above

Substance	binding (Flag-tagged SCRIB)	binding (Flag-tagged ATG16L1)
Atg16L1 (from UniProt Q676U5 1-607)	binds	–
Scribble (from UniProt Q14160 1-1655)	–	binds
